Test results from the supplement of paper PMC12889115.
Some of the results follow. These are raw signals, not scaled to a control.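 Primary screen: polymyxin B was added at a level permeabilizing Salmonella outer membranes while sparing inner membranes. DMSO wells, both with and without polymyxin B, established maximum growth. Plate-to-plate variation meant each plate was ranked on its own, and the lowest-OD600 compounds were selected as hits.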

Tested on: Salmonella enterica serovar Typhimurium SL1344
Test: bacterial growth OD600 after 18 h with compound and polymyxin B; higher = more bacterial growth (less inhibition)
Settings: 50 µM, Mueller-Hinton broth

Structure (SMILES)	bacterial growth OD600 (polymyxin B 1 µg/mL)	bacterial growth OD600 (polymyxin B 0.75 µg/mL)
COCCC(=O)Nc1ccc2c(c1)CN(C(=O)c1cc3c(s1)CCCCC3)CC2	0.002	–
CCOC(=O)C1(Cc2ccccc2Cl)CCN(C(=O)c2ccc(OC)o2)CC1	0.474	–
CN(C)C1CCN(C(=O)c2cc(Cl)ccc2OC2CCN(C3CCCC3)CC2)C1 (stereo not given)	1.22	–
COc1ccc(CN2CCN(Cc3ccc(OC)c(C)c3C)C(CCO)C2)cc1OC (stereo not given)	0.957	–
CCCS(=O)(=O)N1CCCC(Cc2ccccc2C)(C(=O)OCC)C1 (stereo not given)	0.787	–
CSCCC(=O)N(Cc1cccnc1)CC1CCN(Cc2ccccc2C)CC1	1.2	–
COc1ccc(CN2Cc3cc(Cl)ccc3OC(C)C2)c(OC)c1OC (stereo not given)	–	0.017
O=C(CCC1CCN(C(=O)C2=CCCC2)CC1)Nc1ccc(F)c(Cl)c1	0.839	–
O=S(=O)(NCc1cccnc1Oc1ccc(F)c(F)c1)N1CCOCC1	0.804	–
Cc1ccccc1Oc1ncccc1CNC(=O)CCN1CCCO1	1	–
CCN(Cc1ccc(OC)cc1)CC1CCCN(CCc2cccc(OC)c2)C1 (stereo not given)	0.746	–
CO[C@H]1[C@H](NC(=O)c2ccncc2)c2ccccc2C12CCN(C(=O)c1cc3ccccc3n1C)CC2	–	0.797
CC(C)CN(C)c1ccc(C(=O)N2CCC(CN3CCCC3=O)CC2)cn1	–	0.764
O=C(c1ccccc1C(F)(F)F)N1CCC2(CC1)CC2C(=O)N1CCN(c2ccccn2)CC1 (stereo not given)	–	0.818
Cc1nc2ccccc2n1Cc1cc(C(=O)N2CCc3sccc3C2)n[nH]1	0.867	–
O=C(Nc1ccc(-c2ccn[nH]2)cc1)C1CCCN(Cc2cc(F)ccc2F)C1 (stereo not given)	0.934	–
Cc1nccn1CCCNC(=O)c1ccc(OC2CCN(C(=O)C3CC3)CC2)cc1	1.04	–
CN(CC1CCN(CCc2ccc(F)cc2)CC1)C(=O)c1ccsc1	1.07	–
COc1ccc(C(=O)N(C)CC2CCCN(CCc3ccccc3OC)C2)cc1C (stereo not given)	0.695	–
CN(CCc1ccccn1)C(=O)CCC1CCCN(C(=O)CC2=CCCCC2)C1 (stereo not given)	0.824	–
COc1ccc(CN2CCN(Cc3cccc4ncccc34)CC2CCO)c(F)c1 (stereo not given)	0.943	–
CCc1ccc(CN2CCc3c(C(=O)N4CCCCC4C(=O)OC)c(OC)cc(=O)n3CC2)o1 (stereo not given)	–	0.838
OC(Cc1ccccc1)c1ccc2c(c1)CN(Cc1cccnc1)CCO2 (stereo not given)	–	0.986
Oc1cccc(CNC2COc3ccccc3C2)c1 (stereo not given)	0.817	–
O=C(CC1(c2ccccc2)CC(=O)N(CCc2ccccn2)C1=O)N1CCC(Cc2ccccc2)CC1 (stereo not given)	–	0.001
Cn1nc2c(c1C(=O)N1CCOc3ccc(CN4CCN(c5ccccc5)CC4)cc3C1)CCCC2	–	0.941
CN(C)C(=O)CCC(=O)NCc1cccnc1Oc1ccc(F)c(F)c1	1.23	–
COC(=O)c1ccc(C(=O)N(C)C2CCCN(Cc3ccccc3F)C2)cc1 (stereo not given)	0.974	–
Cn1cc(CCC(=O)NC2CC(=O)N(Cc3cccc(F)c3)C2)cn1 (stereo not given)	0.971	–
COc1ccc(N2CCN(C3CCCN(Cc4ccc(O)c(Cl)c4)C3)CC2)cc1 (stereo not given)	0.887	–

Reprinted at random: 2 compounds from above
Structure (SMILES)	bacterial growth OD600 (polymyxin B 1 µg/mL)	bacterial growth OD600 (polymyxin B 0.75 µg/mL)
CCN(Cc1ccc(OC)cc1)CC1CCCN(CCc2cccc(OC)c2)C1 (stereo not given)	0.746	–
CN(CCc1ccccn1)C(=O)CCC1CCCN(C(=O)CC2=CCCCC2)C1 (stereo not given)	0.824	–
